The full ranking holds about 33,000 sequences; the median of “E-score (-0.5 to 0.5)” is about -0.016, and the highest 2% start at about 0.3. The list shows a part of the results.
target: T1, Yer184c (UniProt P39961); assay: PBM E-score (8-mer binding enrichment) (E-score (-0.5 to 0.5)); higher = stronger / more preferred TF binding; details: protein concentration: 100 nM; construct: GST-full length
T1 sequence: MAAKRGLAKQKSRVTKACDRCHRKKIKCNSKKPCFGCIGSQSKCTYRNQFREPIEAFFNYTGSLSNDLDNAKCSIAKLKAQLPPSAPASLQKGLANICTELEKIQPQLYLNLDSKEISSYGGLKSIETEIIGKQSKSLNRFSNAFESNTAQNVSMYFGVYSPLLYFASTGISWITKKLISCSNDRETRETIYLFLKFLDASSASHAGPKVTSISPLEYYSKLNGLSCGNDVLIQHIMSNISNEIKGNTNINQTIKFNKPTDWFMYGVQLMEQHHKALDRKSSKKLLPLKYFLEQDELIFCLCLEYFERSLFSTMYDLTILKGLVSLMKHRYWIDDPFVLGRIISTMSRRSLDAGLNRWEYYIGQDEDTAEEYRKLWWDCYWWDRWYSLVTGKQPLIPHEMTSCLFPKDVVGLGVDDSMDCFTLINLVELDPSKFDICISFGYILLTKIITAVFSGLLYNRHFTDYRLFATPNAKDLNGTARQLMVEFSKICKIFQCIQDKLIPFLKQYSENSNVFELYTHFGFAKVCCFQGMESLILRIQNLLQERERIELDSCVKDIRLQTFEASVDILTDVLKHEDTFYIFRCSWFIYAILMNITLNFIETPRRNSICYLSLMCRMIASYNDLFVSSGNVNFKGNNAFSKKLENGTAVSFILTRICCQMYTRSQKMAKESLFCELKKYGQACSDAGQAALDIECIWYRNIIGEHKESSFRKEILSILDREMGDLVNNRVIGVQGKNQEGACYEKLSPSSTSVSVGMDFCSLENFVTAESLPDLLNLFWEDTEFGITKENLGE
How it was run: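 Bound GST-tagged yeast transcription factors, applied at about 100-200 nM to double-stranded universal all-10-mer Agilent arrays, were detected with fluorescent anti-GST. Scans were normalised with masliner. A modified Wilcoxon-Mann-Whitney statistic, the E-score, was assigned to each ungapped eight-base word pooled with its reverse complement by the Universal PBM Analysis Suite.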

In order of rising “PBM E-score” value:
1. ACTGAGGG  -0.329
2. CCCCTAAA  -0.312
3. CCCCTGAG  -0.296
4. CTGGCGAC  -0.282
5. ATGGTGAG  -0.28
6. ACATGTCG  -0.224
7. CAGGCTGC  -0.22
8. CCTCCCAA  -0.207
9. ATCTGCCC  -0.194
10. AGACTGCG  -0.191
11. AGACTGGG  -0.186
12. ACTATGGG  -0.181
13. CATCGCTC  -0.176
14. ACTAGCAC  -0.174
15. AACCGTCA  -0.162
16. GACCAGTC  -0.16
17. AGTCGTCC  -0.155
18. GGAGGAGA  -0.155
19. ATATGCCC  -0.153
20. CCAGCTCC  -0.149
21. CCAGGAGA  -0.149
22. ACTGCCAC  -0.148
23. CGTCTCTA  -0.146
24. GATGACCC  -0.142
25. ACGCTGCT  -0.139
26. CTAGACGA  -0.117
27. CATACAGG  -0.117
28. ATCATGGC  -0.113
29. ACAGTGAT  -0.112
30. AGGACAGA  -0.105
31. AGGAACTA  -0.103
32. ATAAAGCA  -0.1
33. CCGCCACG  -0.0977
34. CCAAGTGA  -0.0975
35. GGATCGCA  -0.0907
36. ATTAGGAG  -0.0858
37. AAGTAAAG  -0.0673
38. ATGCCAGG  -0.0572
39. AAACTTAG  -0.0561
40. ATCGCACC  -0.0521
41. ATAGGAAG  -0.0518
42. ATATGCTA  -0.0512
43. AGCAATGG  -0.0509
44. GAATTGCA  -0.0409
45. CATGGAGA  -0.0403
46. CATAGATA  -0.0363
47. ATACCTAC  -0.0307
48. GCTTCTAC  -0.0215
49. ACTCGAAC  -0.0196
50. GTACTCAC  -0.014
51. CACCGTTC  -0.00343
52. AAGCATAC  0.00296
53. TAGGTAGA  0.0124
54. AATCGTTA  0.0153
55. ATGGAAGC  0.0186
56. CAGACATC  0.0195
57. CGTGATCA  0.0205
58. GGCGCTGA  0.0249
59. CGGTCCAA  0.0315
60. GGCGTACC  0.0326
61. TAACGGTA  0.0369
62. GGAGCATA  0.0471
63. CTATCATC  0.0514
64. CCTGATAA  0.0644
65. CAAATTGC  0.0952
66. TACTTTGA  0.0968
67. ACTTGGTC  0.0981
68. AATGCGGG  0.101
69. CTCCGATA  0.108
70. AACCTTCG  0.112
71. GGGTCCGA  0.113
72. CTTGAATA  0.114
73. ATTCCCAG  0.118
74. AGTTGTAA  0.119
75. AGATGTAA  0.128
76. ACACCGGG  0.13
77. CCTTCAAA  0.132
78. TCGATACA  0.133
79. AAGGTTCC  0.143
80. ATATCAAG  0.146
81. TTGTCAAA  0.148
82. CCTAACAA  0.168
83. GTTTTCAA  0.194
84. GAACTAGA  0.201
85. GTTTTGAA  0.211
86. GCAAATAA  0.214
87. CCGGTGAC  0.218
88. GTATTAAA  0.248
89. CCGATAAC  0.251
90. ATTTTATA  0.273
91. TTCGCGAA  0.279
92. CGGAAAGC  0.282
93. GGCGGTAA  0.285
94. TCCACGGA  0.304

Source: the supplement of paper PMC3334620
